{"source": "PubChem BioAssay AID328", "about": "(DTP/NCI, 2004)", "tested_on": "BDF1 mice, P388 leukemia ip, median survival T/C", "test": "NCI In Vivo Anticancer Drug Screen. Data for tumor model P388 Leukemia (intraperitoneal) in B6D2F1 (BDF1) mice", "conditions": "T/C endpoint: median survival time, higher T/C = longer survival", "summary_of_the_method": "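Transplantable tumour in mice; compound vs vehicle dosing; survival scored; ratio of treated to control reported.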", "key": {"[1]": {"conditions": "dose: 25.0 mg/kg/injection, schedule: Q01DX009 (ip), vehicle: Klucel (hydroxypropylcellulose) (HPC)"}, "[2]": {"conditions": "dose: 50.0 mg/kg/injection, schedule: Q01DX009 (ip), vehicle: other"}, "[3]": {"conditions": "dose: 200.0 mg/kg/injection, schedule: Q01DX009 (ip), vehicle: Klucel (hydroxypropylcellulose) (HPC)"}, "[4]": {"conditions": "dose: 12.5 mg/kg/injection, schedule: Q01DX009 (ip), vehicle: Klucel (hydroxypropylcellulose) (HPC)"}, "[5]": {"conditions": "dose: 200.0 mg/kg/injection, schedule: Q01DX009 (ip), vehicle: saline"}}, "note": "The list is a part of this screen's results and no random one: it is rich in T/C values a quarter to a half above the control, in often repeated tests (any T/C) and in doses without a T/C. Further doses and runs are listed elsewhere. T/C is the treated group as % of the vehicle group. Some entries give survivors of the animals treated and no T/C: the source files T/C as zero there, which appears to mark a toxic dose or a test without result, not a measured value. Some doses without a T/C left all or most animals alive at the check, yet need not have been tolerated: the source hardly ever lists a survival T/C far under the control, and the zero likely stands for such cases as well. Counts of survivors are from the toxicity check (mostly the fifth day) where no day follows; animals may have died later. Schedules are NCI's codes, read here as Q, the interval in days (D) or hours (H), X, the number of doses. Where survival is the endpoint, this PubChem deposit counts one and a half times the control or more as active, and values a quarter to a half above the control carry no call in these data; other NCI protocols may use other cut-offs. Some T/C values are followed by the survivors on the day toxicity was checked, most often the fifth; where none is given, no animal had died by that day."}
{"smiles": "N#Cc1ccccc1NN=Nc1ccccc1-c1nc(N)nc(N)n1", "values": [{"measurement": "T/C", "setting": "dose: 12.0 mg/kg/injection, schedule: Q01DX009 (ip), vehicle: other", "result": "127 % of control"}, {"measurement": "survivor count", "setting": "[1]", "result": "5 of 6"}, {"measurement": "T/C", "setting": "dose: 25.0 mg/kg/injection, schedule: Q01DX009 (ip), vehicle: other", "result": "127 % of control"}, {"measurement": "T/C", "setting": "[2]", "result": "136 % of control"}, {"measurement": "T/C", "setting": "[3]", "result": "138 % of control"}]}
{"smiles": "O=C(/C=C/c1cccnc1)/C=C/c1cccnc1", "values": [{"measurement": "T/C", "setting": "dose: 6.25 mg/kg/injection, schedule: Q01DX009 (ip), vehicle: Klucel (hydroxypropylcellulose) (HPC)", "result": "130 % of control"}, {"measurement": "T/C", "setting": "[4]", "result": "125 % of control"}, {"measurement": "T/C", "setting": "[1]", "result": "130 % of control [4 of 6 alive]"}]}
{"smiles": "CCCCOCN(COCCCC)C12CC3CC(CC(C3)C1)C2", "values": [{"measurement": "T/C", "setting": "dose: 100.0 mg/kg/injection, schedule: Q01DX009 (ip), vehicle: saline with Tween-80", "result": "130 % of control"}, {"measurement": "T/C", "setting": "dose: 200.0 mg/kg/injection, schedule: Q01DX009 (ip), vehicle: saline with Tween-80", "result": "136 % of control"}]}
{"smiles": "COc1cc2cc(c1Cl)N(C)C(=O)CC(OC(=O)C(C)N(C)C(=O)C(C)C)C1(C)OC1C(C)C1CC(O)(NC(=O)O1)C(OC)/C=C/C=C(C)C2", "note": "(stereo unspecified)", "values": [{"measurement": "T/C", "setting": "dose: 0.1 micrograms/kg/injection, schedule: Q01DX009 (ip), vehicle: saline + alcohol", "result": "125 % of control [5 of 6 alive]"}, {"measurement": "T/C", "setting": "dose: 3.1 micrograms/kg/injection, schedule: Q01DX009 (ip), vehicle: saline + alcohol", "result": "145 % of control"}, {"measurement": "survivor count", "setting": "dose: 25.0 micrograms/kg/injection, schedule: Q01DX009 (ip), vehicle: saline + alcohol", "result": "6 of 6"}, {"measurement": "survivor count", "setting": "dose: 50.0 micrograms/kg/injection, schedule: Q01DX009 (ip), vehicle: saline + alcohol", "result": "1 of 6"}]}
{"smiles": "COc1cc(C(=O)OC2c3ccccc3CCC2N(C)C)cc(OC)c1OC", "note": "(stereo unspecified)", "values": [{"measurement": "T/C", "setting": "dose: 100.0 mg/kg/injection, schedule: Q01DX009 (ip), vehicle: saline", "result": "126 % of control"}, {"measurement": "survivor count", "setting": "[5]", "result": "0 of 6"}]}
{"smiles": "O=c1[nH]cnc2c(Cl)c(C(Cl)(Cl)Cl)nn12", "note": "(tested in a mixture with another compound)", "values": [{"measurement": "survivor count", "setting": "dose: 50.0 mg/kg/injection, schedule: Q01DX009 (ip), vehicle: saline with Tween-80", "result": "6 of 6"}]}
{"smiles": "CC(C)(C)c1cc([N+](=O)[O-])cc(C(C)(C)C)c1O", "values": [{"measurement": "survivor count", "setting": "dose: 100.0 mg/kg/injection, schedule: Q04DX003 (ip), vehicle: Klucel (hydroxypropylcellulose) (HPC)", "result": "6 of 6"}, {"measurement": "survivor count", "setting": "dose: 400.0 mg/kg/injection, schedule: Q04DX003 (ip), vehicle: Klucel (hydroxypropylcellulose) (HPC)", "result": "5 of 6"}]}
{"smiles": "CC(C)NC(=O)OCc1c(COC(=O)NC(C)C)c(-c2ccc(Cl)c(Cl)c2)n2c1CCC2", "values": [{"measurement": "T/C", "setting": "[2]", "result": "125 % of control"}, {"measurement": "survivor count", "setting": "dose: 100.0 mg/kg/injection, schedule: Q01DX009 (ip), vehicle: other", "result": "6 of 6"}, {"measurement": "survivor count", "setting": "dose: 200.0 mg/kg/injection, schedule: Q01DX009 (ip), vehicle: other", "result": "4 of 6"}]}
{"smiles": "C=C1C(=O)OC2C3OC(C)(CCC(O)C3COC(C)=O)CC(OC(=O)/C(=C/C)COC(C)=O)C12", "note": "(stereo unspecified)", "values": [{"measurement": "T/C", "setting": "[4]", "result": "132 % of control"}, {"measurement": "T/C", "setting": "[1]", "result": "132 % of control"}, {"measurement": "survivor count", "setting": "dose: 50.0 mg/kg/injection, schedule: Q01DX009 (ip), vehicle: Klucel (hydroxypropylcellulose) (HPC)", "result": "4 of 6"}, {"measurement": "survivor count", "setting": "dose: 100.0 mg/kg/injection, schedule: Q01DX009 (ip), vehicle: Klucel (hydroxypropylcellulose) (HPC)", "result": "0 of 6"}, {"measurement": "survivor count", "setting": "[3]", "result": "0 of 6"}, {"measurement": "survivor count", "setting": "dose: 400.0 mg/kg/injection, schedule: Q01DX009 (ip), vehicle: Klucel (hydroxypropylcellulose) (HPC)", "result": "0 of 6"}]}
{"smiles": "CCOc1cc(/C=N\\Nc2nncn2N)ccc1N(CCCl)CCCl", "values": [{"measurement": "T/C", "setting": "dose: 1.3 mg/kg/injection, schedule: Q04DX003 (ip), vehicle: saline with Tween-80", "result": "145 % of control"}, {"measurement": "T/C", "setting": "dose: 2.0 mg/kg/injection, schedule: Q04DX003 (ip), vehicle: saline with Tween-80", "result": "140 % of control"}, {"measurement": "T/C", "setting": "dose: 3.0 mg/kg/injection, schedule: Q04DX003 (ip), vehicle: saline with Tween-80", "result": "146 % of control"}, {"measurement": "survivor count", "setting": "dose: 60.0 mg/kg/injection, schedule: Q04DX003 (ip), vehicle: saline with Tween-80", "result": "4 of 6"}]}
{"smiles": "CC1(C)CC(=O)c2ccccc21", "values": [{"measurement": "survivor count", "setting": "dose: 12.5 mg/kg/injection, schedule: Q01DX009 (ip), vehicle: saline", "result": "6 of 6"}, {"measurement": "survivor count", "setting": "[5]", "result": "6 of 6"}, {"measurement": "survivor count", "setting": "dose: 300.0 mg/kg/injection, schedule: Q01DX009 (ip), vehicle: saline", "result": "5 of 6"}, {"measurement": "survivor count", "setting": "dose: 400.0 mg/kg/injection, schedule: Q04DX003 (ip), vehicle: saline", "result": "2 of 6"}]}
